Source: the supplement of paper PMC12823440, “Inhibitors supercharge kinase turnover through native proteolytic circuits” (Nature, 2025)
Structures can show the parent of a compound that is named as a salt. The list shows a part of the results. Hit calls seldom repeat between salt and free forms of one compound.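 In K562 cells expressing nanoluciferase-fused kinases, luminescence was recorded at 4 h intervals between 2 and 18 h, normalized as percent of control with DMSO at 100% and a positive control at 0%. A significant (2 sigma) signal drop marks a time point as decreased. The authors' rule for a hit is not shown and takes in more than the number of time points.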

The chains behind the UniProt entries cited, without tags or fusion partners. Where a name states a change or a piece, a line headed by the entry shows the natural chain unless it says otherwise.
UniProt P00519, whole entry: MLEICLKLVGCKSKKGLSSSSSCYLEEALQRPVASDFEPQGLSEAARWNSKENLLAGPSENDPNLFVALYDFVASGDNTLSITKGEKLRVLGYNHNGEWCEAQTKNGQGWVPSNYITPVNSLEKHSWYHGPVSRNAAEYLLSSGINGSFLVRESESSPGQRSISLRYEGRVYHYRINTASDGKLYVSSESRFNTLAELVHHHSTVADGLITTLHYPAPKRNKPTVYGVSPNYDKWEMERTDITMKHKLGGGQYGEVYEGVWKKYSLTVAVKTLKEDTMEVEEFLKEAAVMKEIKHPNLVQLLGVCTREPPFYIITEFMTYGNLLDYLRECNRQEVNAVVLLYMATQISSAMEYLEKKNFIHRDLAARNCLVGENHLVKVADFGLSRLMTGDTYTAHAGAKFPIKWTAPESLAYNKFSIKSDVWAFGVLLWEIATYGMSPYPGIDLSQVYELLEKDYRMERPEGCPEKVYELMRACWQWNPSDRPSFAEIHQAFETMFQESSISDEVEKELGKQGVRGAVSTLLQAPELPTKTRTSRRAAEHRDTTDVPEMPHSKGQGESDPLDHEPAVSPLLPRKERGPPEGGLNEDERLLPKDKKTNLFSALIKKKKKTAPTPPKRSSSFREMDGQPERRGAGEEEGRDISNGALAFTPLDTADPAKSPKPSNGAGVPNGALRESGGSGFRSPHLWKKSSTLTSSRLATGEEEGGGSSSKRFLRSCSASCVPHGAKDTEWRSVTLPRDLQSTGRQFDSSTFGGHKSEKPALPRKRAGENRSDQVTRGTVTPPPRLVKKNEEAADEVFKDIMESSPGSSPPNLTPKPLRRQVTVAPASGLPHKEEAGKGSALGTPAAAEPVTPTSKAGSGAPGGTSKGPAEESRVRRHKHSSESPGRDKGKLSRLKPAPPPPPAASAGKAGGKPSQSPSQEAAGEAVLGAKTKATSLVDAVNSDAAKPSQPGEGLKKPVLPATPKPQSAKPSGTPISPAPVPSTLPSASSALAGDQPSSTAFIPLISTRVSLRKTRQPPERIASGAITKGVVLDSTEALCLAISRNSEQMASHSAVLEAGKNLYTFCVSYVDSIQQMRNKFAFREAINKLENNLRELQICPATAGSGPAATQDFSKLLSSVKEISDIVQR
UniProt P31749: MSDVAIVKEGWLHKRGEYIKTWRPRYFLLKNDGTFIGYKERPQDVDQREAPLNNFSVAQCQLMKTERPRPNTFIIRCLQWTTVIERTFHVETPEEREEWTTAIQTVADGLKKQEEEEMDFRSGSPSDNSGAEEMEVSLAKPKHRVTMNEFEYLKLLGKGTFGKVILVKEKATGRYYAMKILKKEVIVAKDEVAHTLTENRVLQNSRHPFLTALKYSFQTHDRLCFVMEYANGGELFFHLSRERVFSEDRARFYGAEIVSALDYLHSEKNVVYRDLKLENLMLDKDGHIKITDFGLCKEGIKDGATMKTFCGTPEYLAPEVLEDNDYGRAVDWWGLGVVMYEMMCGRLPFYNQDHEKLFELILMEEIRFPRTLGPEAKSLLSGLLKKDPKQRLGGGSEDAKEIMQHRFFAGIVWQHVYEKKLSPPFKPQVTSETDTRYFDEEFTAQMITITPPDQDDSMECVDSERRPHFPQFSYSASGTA
UniProt P10398: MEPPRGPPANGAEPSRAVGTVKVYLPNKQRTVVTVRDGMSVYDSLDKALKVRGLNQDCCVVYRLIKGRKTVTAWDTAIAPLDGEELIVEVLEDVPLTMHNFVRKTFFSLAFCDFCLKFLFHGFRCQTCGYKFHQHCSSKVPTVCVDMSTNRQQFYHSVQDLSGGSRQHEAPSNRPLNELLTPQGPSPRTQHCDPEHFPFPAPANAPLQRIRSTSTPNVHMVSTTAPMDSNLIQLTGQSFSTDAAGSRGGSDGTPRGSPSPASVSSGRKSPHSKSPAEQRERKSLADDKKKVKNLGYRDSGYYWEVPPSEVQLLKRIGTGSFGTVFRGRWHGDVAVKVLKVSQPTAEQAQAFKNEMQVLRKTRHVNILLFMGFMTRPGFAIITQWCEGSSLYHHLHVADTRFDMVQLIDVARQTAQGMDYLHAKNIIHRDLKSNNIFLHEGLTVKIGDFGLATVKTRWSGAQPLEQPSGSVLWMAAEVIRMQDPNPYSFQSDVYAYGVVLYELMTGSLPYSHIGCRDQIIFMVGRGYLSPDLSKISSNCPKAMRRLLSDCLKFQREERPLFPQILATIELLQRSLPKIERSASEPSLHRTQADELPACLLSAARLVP
UniProt Q96GD4, whole entry: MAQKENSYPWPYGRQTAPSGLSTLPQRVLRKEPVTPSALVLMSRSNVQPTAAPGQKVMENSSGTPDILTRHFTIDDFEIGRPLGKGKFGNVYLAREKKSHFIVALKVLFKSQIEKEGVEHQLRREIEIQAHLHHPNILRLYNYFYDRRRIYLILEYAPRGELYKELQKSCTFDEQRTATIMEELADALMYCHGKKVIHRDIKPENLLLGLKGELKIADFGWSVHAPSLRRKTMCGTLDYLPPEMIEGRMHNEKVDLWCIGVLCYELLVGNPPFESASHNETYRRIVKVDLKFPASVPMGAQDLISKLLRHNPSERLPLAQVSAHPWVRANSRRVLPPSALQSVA
UniProt Q9UQB9: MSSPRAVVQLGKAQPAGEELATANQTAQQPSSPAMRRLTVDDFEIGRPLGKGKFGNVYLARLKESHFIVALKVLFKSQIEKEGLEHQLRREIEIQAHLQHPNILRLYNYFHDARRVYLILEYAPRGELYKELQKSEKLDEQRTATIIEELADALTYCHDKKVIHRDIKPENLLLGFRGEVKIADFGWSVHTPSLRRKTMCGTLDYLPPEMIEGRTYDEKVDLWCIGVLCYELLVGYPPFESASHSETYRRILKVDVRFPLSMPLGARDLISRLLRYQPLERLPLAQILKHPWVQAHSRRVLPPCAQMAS
UniProt P51813: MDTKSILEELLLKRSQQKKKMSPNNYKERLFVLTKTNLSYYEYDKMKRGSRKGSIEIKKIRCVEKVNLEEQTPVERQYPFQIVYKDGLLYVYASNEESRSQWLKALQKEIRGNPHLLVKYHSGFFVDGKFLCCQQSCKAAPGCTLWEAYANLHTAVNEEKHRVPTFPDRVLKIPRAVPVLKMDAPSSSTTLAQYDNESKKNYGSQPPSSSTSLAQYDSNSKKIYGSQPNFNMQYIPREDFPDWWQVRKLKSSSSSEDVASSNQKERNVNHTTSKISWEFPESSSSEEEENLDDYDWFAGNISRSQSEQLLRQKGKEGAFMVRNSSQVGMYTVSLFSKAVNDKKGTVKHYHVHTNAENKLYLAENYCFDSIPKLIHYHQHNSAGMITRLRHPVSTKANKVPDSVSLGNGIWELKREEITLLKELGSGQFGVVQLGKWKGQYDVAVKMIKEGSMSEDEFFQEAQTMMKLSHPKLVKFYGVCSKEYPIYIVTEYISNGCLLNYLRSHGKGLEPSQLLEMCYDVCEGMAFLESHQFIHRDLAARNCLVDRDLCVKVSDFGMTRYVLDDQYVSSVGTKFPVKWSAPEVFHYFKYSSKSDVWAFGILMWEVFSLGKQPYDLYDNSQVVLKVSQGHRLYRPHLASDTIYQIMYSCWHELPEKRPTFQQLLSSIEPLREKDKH
UniProt Q06187: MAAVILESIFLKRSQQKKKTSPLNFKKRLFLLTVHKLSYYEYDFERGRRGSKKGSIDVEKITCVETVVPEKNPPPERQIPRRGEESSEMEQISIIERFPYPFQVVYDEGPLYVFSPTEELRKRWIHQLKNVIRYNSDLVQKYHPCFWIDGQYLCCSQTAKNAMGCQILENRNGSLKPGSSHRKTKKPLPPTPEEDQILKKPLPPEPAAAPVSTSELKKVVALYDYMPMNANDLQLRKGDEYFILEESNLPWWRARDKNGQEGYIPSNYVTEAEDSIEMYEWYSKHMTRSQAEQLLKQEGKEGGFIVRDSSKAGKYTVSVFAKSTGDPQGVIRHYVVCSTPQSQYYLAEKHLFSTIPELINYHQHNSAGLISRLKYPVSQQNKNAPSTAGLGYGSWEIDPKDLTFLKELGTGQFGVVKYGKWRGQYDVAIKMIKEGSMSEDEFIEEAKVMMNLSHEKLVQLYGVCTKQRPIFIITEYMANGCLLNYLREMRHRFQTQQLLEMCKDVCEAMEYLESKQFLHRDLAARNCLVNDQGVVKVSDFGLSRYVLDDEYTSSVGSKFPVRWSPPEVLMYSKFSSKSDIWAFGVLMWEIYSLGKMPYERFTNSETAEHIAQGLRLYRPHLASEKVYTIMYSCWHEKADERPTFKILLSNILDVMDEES
UniProt Q9UQM7, whole entry: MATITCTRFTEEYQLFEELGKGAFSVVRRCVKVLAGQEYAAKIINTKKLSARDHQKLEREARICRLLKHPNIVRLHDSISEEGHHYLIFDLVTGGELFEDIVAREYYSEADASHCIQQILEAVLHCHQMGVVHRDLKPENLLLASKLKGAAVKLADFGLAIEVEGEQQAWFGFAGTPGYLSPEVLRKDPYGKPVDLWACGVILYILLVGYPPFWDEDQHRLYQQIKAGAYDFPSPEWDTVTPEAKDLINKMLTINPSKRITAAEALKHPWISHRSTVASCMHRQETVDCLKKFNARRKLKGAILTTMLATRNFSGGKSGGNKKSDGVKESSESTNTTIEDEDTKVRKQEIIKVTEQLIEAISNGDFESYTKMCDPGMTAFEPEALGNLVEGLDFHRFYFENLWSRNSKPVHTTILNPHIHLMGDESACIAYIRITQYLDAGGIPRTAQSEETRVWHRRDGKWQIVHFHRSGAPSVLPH
UniProt Q13555: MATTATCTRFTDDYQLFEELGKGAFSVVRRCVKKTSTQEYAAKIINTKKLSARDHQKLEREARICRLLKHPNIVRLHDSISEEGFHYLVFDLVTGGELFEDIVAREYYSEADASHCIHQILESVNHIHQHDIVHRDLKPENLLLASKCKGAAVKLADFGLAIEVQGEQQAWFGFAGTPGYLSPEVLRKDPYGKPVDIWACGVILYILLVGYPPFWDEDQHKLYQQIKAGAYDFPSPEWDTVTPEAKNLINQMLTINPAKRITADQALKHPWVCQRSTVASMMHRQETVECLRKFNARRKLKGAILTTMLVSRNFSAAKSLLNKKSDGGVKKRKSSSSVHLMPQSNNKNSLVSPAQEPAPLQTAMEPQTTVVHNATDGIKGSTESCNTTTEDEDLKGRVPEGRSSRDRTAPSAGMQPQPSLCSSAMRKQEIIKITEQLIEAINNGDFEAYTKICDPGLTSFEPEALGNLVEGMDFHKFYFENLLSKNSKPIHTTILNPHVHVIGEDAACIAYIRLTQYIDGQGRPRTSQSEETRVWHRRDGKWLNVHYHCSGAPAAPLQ
UniProt Q15131: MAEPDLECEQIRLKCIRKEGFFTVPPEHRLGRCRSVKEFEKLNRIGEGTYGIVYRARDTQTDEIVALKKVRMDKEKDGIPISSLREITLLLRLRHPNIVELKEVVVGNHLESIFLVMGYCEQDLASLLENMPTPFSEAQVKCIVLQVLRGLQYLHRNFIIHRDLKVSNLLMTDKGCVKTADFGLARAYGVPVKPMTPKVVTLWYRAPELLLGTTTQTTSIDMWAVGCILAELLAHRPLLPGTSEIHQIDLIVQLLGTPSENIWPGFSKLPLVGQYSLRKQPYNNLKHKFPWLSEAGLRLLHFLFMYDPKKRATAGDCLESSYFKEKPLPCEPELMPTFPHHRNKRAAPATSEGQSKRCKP
UniProt Q00526: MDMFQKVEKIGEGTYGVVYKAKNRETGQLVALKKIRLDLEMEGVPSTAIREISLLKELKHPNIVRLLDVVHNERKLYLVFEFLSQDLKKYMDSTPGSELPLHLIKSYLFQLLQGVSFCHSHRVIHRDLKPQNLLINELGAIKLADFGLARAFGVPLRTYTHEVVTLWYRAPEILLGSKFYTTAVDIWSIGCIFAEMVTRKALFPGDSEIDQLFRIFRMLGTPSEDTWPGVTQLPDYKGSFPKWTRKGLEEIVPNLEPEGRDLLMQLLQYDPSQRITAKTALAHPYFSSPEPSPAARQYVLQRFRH
UniProt Q00535, whole entry, looked up: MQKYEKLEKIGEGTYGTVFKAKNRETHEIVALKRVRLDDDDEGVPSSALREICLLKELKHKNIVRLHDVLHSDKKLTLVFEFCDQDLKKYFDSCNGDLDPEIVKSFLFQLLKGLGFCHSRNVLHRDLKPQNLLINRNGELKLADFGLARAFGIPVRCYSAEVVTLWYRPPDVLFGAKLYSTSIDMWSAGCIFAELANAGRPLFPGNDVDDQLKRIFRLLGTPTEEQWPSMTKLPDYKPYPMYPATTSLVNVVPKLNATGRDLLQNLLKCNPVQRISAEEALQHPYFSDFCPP
UniProt Q00534, whole entry: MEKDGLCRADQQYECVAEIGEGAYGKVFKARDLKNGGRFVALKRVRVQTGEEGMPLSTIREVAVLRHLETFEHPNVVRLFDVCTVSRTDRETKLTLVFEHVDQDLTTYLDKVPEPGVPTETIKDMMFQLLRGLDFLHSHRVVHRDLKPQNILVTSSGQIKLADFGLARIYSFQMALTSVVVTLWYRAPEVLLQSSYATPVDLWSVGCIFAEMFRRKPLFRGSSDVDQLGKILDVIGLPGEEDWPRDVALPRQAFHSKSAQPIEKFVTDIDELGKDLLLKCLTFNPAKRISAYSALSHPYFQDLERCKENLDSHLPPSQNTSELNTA

How the values were obtained:
Assay in all cases: kinase-Nluc reporter destabilization hit call (1 = scored as downregulated) (binary); higher = compound decreases kinase abundance
Conditions in all cases: K562; 2-18 h
[1] = target: ABL1 (UniProt P00519)
[2] = target: AKT1 (UniProt P31749)
[3] = target: ALK (UniProt Q9UM73)
[4] = target: ARAF (UniProt P10398)
[5] = target: AURKA (UniProt O14965)
[6] = target: AURKB (UniProt Q96GD4)
[7] = target: AURKC (UniProt Q9UQB9)
[8] = target: BLK (UniProt P51451)
[9] = target: BMX (UniProt P51813)
[10] = target: BRAF (UniProt P15056)
[11] = tested on: BRAF_V600E
[12] = target: BTK (UniProt Q06187)
[13] = target: CAMK2A (UniProt Q9UQM7)
[14] = target: CAMK2G (UniProt Q13555)
[15] = target: CDK10 (UniProt Q15131)
[16] = target: CDK2 (UniProt P24941)
[17] = target: CDK3 (UniProt Q00526)
[18] = target: CDK4 (UniProt P11802)
[19] = target: CDK5 (UniProt Q00535)
[20] = target: CDK6 (UniProt Q00534)

Measured: kinase-Nluc reporter destabilization hit call

Cc1cc2ncc(-c3ccccc3)nc2cc1C (10 µM)
inactive: [1] 0 | [2] 0 | [3] 0 | [4] 0 | [5] 0 | [6] 0 | [7] 0 | [8] 0 | [9] 0 | [10] 0 | [11] 0 | [12] 0 | [13] 0 | [14] 0 | [15] 0 | [16] 0 | [17] 0 | [18] 0 | [19] 0 | [20] 0

O[C@H]1CC[C@H](Nc2ncc3nc(Nc4c(F)cc(F)cc4F)n([C@H]4CCOC4)c3n2)CC1 [Tanzisertib] (10 µM)
inactive: [1] 0 | [2] 0 | [3] 0 | [4] 0 | [5] 0 | [6] 0 | [7] 0 | [8] 0 | [9] 0 | [10] 0 | [11] 0 | [12] 0 | [13] 0 | [14] 0 | [15] 0 | [16] 0 | [17] 0 | [18] 0 | [19] 0 | [20] 0

N#Cc1ccc(-c2c(-c3ncn[nH]3)sc(N3CCOCC3)c2C#N)c(F)c1 (10 µM)
inactive: [1] 0 | [2] 0 | [3] 0 | [4] 0 | [5] 0 | [6] 0 | [7] 0 | [8] 0 | [9] 0 | [10] 0 | [11] 0 | [12] 0 | [13] 0 | [14] 0 | [15] 0 | [16] 0 | [17] 0 | [18] 0 | [19] 0 | [20] 0

N#C/C(=C(/N)Sc1ccc(N)cc1)c1ccccc1C(F)(F)F (10 µM)
inactive: [1] 0 | [2] 0 | [3] 0 | [4] 0 | [5] 0 | [6] 0 | [7] 0 | [8] 0 | [9] 0 | [10] 0 | [11] 0 | [12] 0 | [13] 0 | [14] 0 | [15] 0 | [16] 0 | [17] 0 | [18] 0 | [19] 0 | [20] 0

CCOc1ccccc1C=C1C(=O)Nc2ccccc21 (10 µM)
inactive: [1] 0 | [2] 0 | [3] 0 | [4] 0 | [5] 0 | [6] 0 | [7] 0 | [8] 0 | [9] 0 | [10] 0 | [11] 0 | [12] 0 | [13] 0 | [14] 0 | [15] 0 | [16] 0 | [17] 0 | [18] 0 | [19] 0 | [20] 0

CC[C@@H]1[C@H](F)C(=O)N[C@@H]1COc1nccc2cc(C(N)=O)c(OC)cc12 (10 µM)
inactive: [1] 0 | [2] 0 | [3] 0 | [4] 0 | [5] 0 | [6] 0 | [7] 0 | [8] 0 | [9] 0 | [10] 0 | [11] 0 | [12] 0 | [13] 0 | [14] 0 | [15] 0 | [16] 0 | [17] 0 | [18] 0 | [19] 0 | [20] 0

O=C1NCCCc2c1oc1ccc(O)cc21 (10 µM)
inactive: [1] 0 | [2] 0 | [3] 0 | [4] 0 | [5] 0 | [6] 0 | [7] 0 | [8] 0 | [9] 0 | [10] 0 | [11] 0 | [12] 0 | [13] 0 | [14] 0 | [15] 0 | [16] 0 | [17] 0 | [18] 0 | [19] 0 | [20] 0

Nc1n[nH]c2cc(-c3ccc(=O)n(Cc4cccc(Cl)c4)c3)ccc12 (10 µM)
inactive: [1] 0 | [2] 0 | [3] 0 | [4] 0 | [5] 0 | [6] 0 | [7] 0 | [8] 0 | [9] 0 | [10] 0 | [11] 0 | [12] 0 | [13] 0 | [14] 0 | [15] 0 | [16] 0 | [17] 0 | [18] 0 | [19] 0 | [20] 0

CN(C)C(=O)c1ccc(S(=O)(=O)c2ccc(NC(=O)[C@@](C)(O)C(F)(F)F)c(Cl)c2)cc1 (10 µM)
inactive: [1] 0 | [2] 0 | [3] 0 | [4] 0 | [5] 0 | [6] 0 | [7] 0 | [8] 0 | [9] 0 | [10] 0 | [11] 0 | [12] 0 | [13] 0 | [14] 0 | [15] 0 | [16] 0 | [17] 0 | [18] 0 | [19] 0 | [20] 0

NCCCCCCNS(=O)(=O)c1cccc2c(Cl)cccc12 [W-7 (hydrochloride)] (10 µM)
inactive: [1] 0 | [2] 0 | [3] 0 | [4] 0 | [5] 0 | [6] 0 | [7] 0 | [8] 0 | [9] 0 | [10] 0 | [11] 0 | [12] 0 | [13] 0 | [14] 0 | [15] 0 | [16] 0 | [17] 0 | [18] 0 | [19] 0 | [20] 0

CN(C)Cc1cccc(N=C(c2ccccc2)c2c(O)[nH]c3cc(C(N)=O)ccc23)c1 (10 µM)
inactive: [1] 0 | [2] 0 | [3] 0 | [4] 0 | [5] 0 | [6] 0 | [7] 0 | [8] 0 | [9] 0 | [10] 0 | [11] 0 | [12] 0 | [13] 0 | [14] 0 | [15] 0 | [16] 0 | [17] 0 | [18] 0 | [19] 0 | [20] 0

Nc1cc(C(F)F)c(-c2nc(N3C4CCC3COC4)nc(N3C4CCC3COC4)n2)cn1 (2.5 µM)
inactive: [1] 0 | [2] 0 | [3] 0 | [4] 0 | [5] 0 | [6] 0 | [7] 0 | [8] 0 | [9] 0 | [10] 0 | [11] 0 | [12] 0 | [13] 0 | [14] 0 | [15] 0 | [16] 0 | [17] 0 | [18] 0 | [19] 0 | [20] 0

CC[C@@H](N)CNc1ccnc(-c2cc(-c3cnn(C)c3)ccc2O)n1 (2.5 µM)
inactive: [1] 0 | [2] 0 | [3] 0 | [4] 0 | [5] 0 | [6] 0 | [7] 0 | [8] 0 | [9] 0 | [10] 0 | [11] 0 | [12] 0 | [13] 0 | [14] 0 | [15] 0 | [16] 0 | [17] 0 | [18] 0 | [19] 0 | [20] 0

Cc1cc2cc(Oc3ccnc(Nc4cccc(CS(=O)(=O)NCCN(C)C)c4)n3)ccc2[nH]1 [Sulfatinib] (10 µM)
inactive: [1] 0 | [2] 0 | [3] 0 | [4] 0 | [5] 0 | [6] 0 | [7] 0 | [8] 0 | [9] 0 | [10] 0 | [11] 0 | [12] 0 | [13] 0 | [14] 0 | [15] 0 | [16] 0 | [17] 0 | [18] 0 | [19] 0 | [20] 0

Part of the list above in order of SMILES length, smallest number first:
NCCCCCCNS(=O)(=O)c1cccc2c(Cl)cccc12 [W-7 (hydrochloride)] (10 µM)
inactive: [1] 0 | [2] 0 | [3] 0 | [4] 0 | [5] 0 | [6] 0 | [7] 0 | [8] 0 | [9] 0 | [10] 0 | [11] 0 | [12] 0 | [13] 0 | [14] 0 | [15] 0 | [16] 0 | [17] 0 | [18] 0 | [19] 0 | [20] 0

CC[C@@H](N)CNc1ccnc(-c2cc(-c3cnn(C)c3)ccc2O)n1 (2.5 µM)
inactive: [1] 0 | [2] 0 | [3] 0 | [4] 0 | [5] 0 | [6] 0 | [7] 0 | [8] 0 | [9] 0 | [10] 0 | [11] 0 | [12] 0 | [13] 0 | [14] 0 | [15] 0 | [16] 0 | [17] 0 | [18] 0 | [19] 0 | [20] 0

Nc1cc(C(F)F)c(-c2nc(N3C4CCC3COC4)nc(N3C4CCC3COC4)n2)cn1 (2.5 µM)
inactive: [1] 0 | [2] 0 | [3] 0 | [4] 0 | [5] 0 | [6] 0 | [7] 0 | [8] 0 | [9] 0 | [10] 0 | [11] 0 | [12] 0 | [13] 0 | [14] 0 | [15] 0 | [16] 0 | [17] 0 | [18] 0 | [19] 0 | [20] 0

Carrying on:

CC(C)c1cc(/C=C(\C#N)C(N)=O)cc(C(C)C)c1O (10 µM)
inactive: [1] 0 | [2] 0 | [3] 0 | [4] 0 | [5] 0 | [6] 0 | [7] 0 | [8] 0 | [9] 0 | [10] 0 | [11] 0 | [12] 0 | [13] 0 | [14] 0 | [15] 0 | [16] 0 | [17] 0 | [18] 0 | [19] 0 | [20] 0

COc1c(C)c(C(=O)c2ccc(N)c(C(=O)O)c2)n2ccccc12 (10 µM)
inactive: [1] 0 | [2] 0 | [3] 0 | [4] 0 | [5] 0 | [6] 0 | [7] 0 | [8] 0 | [9] 0 | [10] 0 | [11] 0 | [12] 0 | [13] 0 | [14] 0 | [15] 0 | [16] 0 | [17] 0 | [18] 0 | [19] 0 | [20] 0

CC[C@@H]1C(=O)N(C)c2cnc(Nc3ccc(C(=O)N[C@H]4CC[C@H](N5CCN(CC6CC6)CC5)CC4)cc3OC)nc2N1C(C)C [Volasertib] (2.5 µM)
inactive: [1] 0 | [2] 0 | [3] 0 | [4] 0 | [5] 0 | [6] 0 | [7] 0 | [8] 0 | [9] 0 | [10] 0 | [11] 0 | [12] 0 | [13] 0 | [14] 0 | [15] 0 | [16] 0 | [17] 0 | [18] 0 | [19] 0 | [20] 0
